{"source": "patent US10760110B2", "about": "“Antibiotic testing and screening system” (priority 2017, dated 2020)", "key": {"[1]": {"test_system": "A. baumannii KW1 and its AdeR/AdeS mutants", "test": "Etest MIC, AdeABC overexpression via AdeR or AdeS mutation (Table 16)", "assay_type": "cell-based, Acinetobacter baumannii", "conditions": "single mutation in AdeR (D20N, A91V, P116L) or AdeS (G30D, A94V, R152K, T153M)", "from_the_text": "DNA fragments of the entire adeR, adeS, gyrA and parC along with their flanking regions were amplified from A. baumannii KW1 using PCR with specific primer pairs and then cloned into plasmid pUT-KB. The QuikChange site-directed mutagenesis kit (Stratagene) was used to generate mutations in the adeR, adeS, gyrA and parC genes in the plasmids using the methods described by the manufacturer. For homologous recombination, plasmids containing mutations in the adeR, adeS, gyrA or parC gene were transformed into E. coli S17-1 λpir^23 via electroporation and mobilized into A. baumannii KW1 via conjugation. Single-crossover strains were selected from Luria-Bertani (LB) plates supplemented with cefotaxime (1 μg/ml) and kanamycin ([…]), as the growth of non-A. baumannii contaminants is suppressed by cefotaxime (1 μg/ml). The kanamycin-resistant transconjugants were selected and the insertion of plasmids was verified via PCR. After incubation in 20 ml brain heart infusion (BHI) broth for 6 hours in the absence of kanamycin at 37° C., the fully grown cultures were spread onto LB plates supplemented with 10% sucrose. After the double crossover occurred, the sucrose-resistant and kanamycin-susceptible colonies were selected, and the gene mutations were confirmed via PCR.\n(§1) The MICs of antibiotics were determined using the Etest (Biodisk AB, Sweden) according to the manufacturer's instructions. The MICs from the Etest, which fall between standard two-fold dilutions, were rounded up to the next highest two-fold value. The MICs of ceftazidime and cefotaxime against K. pneumoniae NVT1001 harbouring the pACYC177 plasmid with blaOXA-48 were further determined using a broth microdilution test according to the recommendations of the CLSI,^25 and the results were interpreted according to the breakpoints established by the CLSI in 2017.^25 Meanwhile, due to the lack of CLSI breakpoints in 2016 and 2017, the results for cephalothin were interpreted according to the breakpoints established by the CLSI in 2015,^26 and the results for moxifloxacin were interpreted according to the breakpoints established by the EUCAST in 2017.^27"}, "[2]": {"test_system": "K. pneumoniae NVT1001 and its ΔompK35/36 and/or ΔramR mutants", "test": "Etest MIC, OmpK35/36 loss and AcrAB-TolC overexpression (ΔramR) strains (Table 6)", "assay_type": "cell-based, Klebsiella pneumoniae", "conditions": "OmpK35/36 loss and AcrAB-TolC overexpression (ΔramR) alone or in combination, vs NVT1001", "experimental": "as §1"}, "[3]": {"test_system": "K. pneumoniae NVT1001 strains with ESBL or AmpC β-lactamase plasmids", "test": "Etest MIC of β-lactams, OmpK35/36 loss, ΔramR and/or extended-spectrum β-lactamase and AmpC β-lactamase (Table 8)", "assay_type": "cell-based, Klebsiella pneumoniae", "experimental": "(§2) DNA fragments of the resistance genes along with their flanking regions were amplified from clinical plasmids via PCR with specific primer pairs. The resulting PCR fragments were digested and then cloned into the plasmid pACYC177 or pACYC184. The resulting plasmids were then transformed into K. pneumoniae strain NVT1001 via electroporation. The recombinant bacteria were plated onto LB agar plates containing kanamycin (50 mg/L) or chloramphenicol (50 mg/L), and the presence of the cloned gene was confirmed via PCR and DNA sequencing.\nas §1"}, "[4]": {"test_system": "K. pneumoniae NVT1001 strains with QnrB, QnrS or AAC(6′)-Ib-cr plasmids", "test": "Etest MIC of quinolones, GyrA/ParC mutations, ΔramR and/or QnrB, QnrS or AAC(6′)-Ib-cr (Table 12)", "assay_type": "cell-based, Klebsiella pneumoniae", "conditions": "strains with AAC(6′)-Ib-cr", "experimental": "as §2, §1"}}, "note": "For part of these data: For at least one compound, name, drawing or mass did not settle the structure. Some of these results come from one statement about several compounds together."}
{"compound": "CC(C)(O/N=C(\\C(=O)N[C@@H]1C(=O)N2C(C(=O)[O-])=C(C[n+]3ccccc3)CS[C@H]12)c1csc(N)n1)C(=O)O", "note": "[Ceftazidime]", "values": [{"measurement": "increase in the MIC", "setting": "[1]", "result": "≥ 4", "unit": "fold"}]}
{"compound": "C[C@@H](O)[C@H]1C(=O)N2C(C(=O)O)=C(SCCN=CN)C[C@H]12", "note": "[Imipenem]", "values": [{"measurement": "effects on the MIC", "setting": "[2]", "result": "no significant (≥4-fold) effects"}, {"measurement": "effects on the MIC", "setting": "[3]; production of AmpC β-lactamases tested alone", "result": "no significant (≥4-fold) effects"}, {"measurement": "effects on the MIC", "setting": "[3]; production of ESBLs tested alone", "result": "no significant (≥4-fold) effects"}, {"measurement": "effects on the MIC", "setting": "[3]; strains with ΔramR, with or without ESBLs or AmpC β-lactamases", "result": "no significant (≥4-fold) effects"}]}
{"compound": "CCn1cc(C(=O)O)c(=O)c2cc(F)c(N3CCNCC3)cc21", "note": "[Norfloxacin, norfloxacin]", "values": [{"measurement": "increase in the MIC", "setting": "[4]", "result": "≥ 4", "unit": "fold"}]}
{"compound": "CN(C)[C@@H]1C(O)=C(C(N)=O)C(=O)[C@@]2(O)C(O)=C3C(=O)c4c(O)cccc4[C@@](C)(O)[C@H]3C[C@@H]12", "note": "[Tetracycline, tetracycline]", "values": [{"measurement": "increase in the MIC", "setting": "[1]", "result": "≥ 4", "unit": "fold"}]}
{"compound": "CN(C)c1cc(NC(=O)CNC(C)(C)C)c(O)c2c1C[C@H]1C[C@H]3[C@H](N(C)C)C(O)=C(C(N)=O)C(=O)[C@@]3(O)C(O)=C1C2=O", "note": "[Tigecycline, tigecycline]", "values": [{"measurement": "increase in the MIC", "setting": "[1]", "result": "≥ 4", "unit": "fold"}]}
{"compound": "Gentamicin", "values": [{"measurement": "increase in the MIC", "setting": "[1]", "result": "≥ 4", "unit": "fold"}]}
